# Reference: the supplement of paper PMC10032668
# Chains of the proteins cited; added tags and fusions are not shown.
# RGPD5, Q99666, UniProt Q99666, whole entry: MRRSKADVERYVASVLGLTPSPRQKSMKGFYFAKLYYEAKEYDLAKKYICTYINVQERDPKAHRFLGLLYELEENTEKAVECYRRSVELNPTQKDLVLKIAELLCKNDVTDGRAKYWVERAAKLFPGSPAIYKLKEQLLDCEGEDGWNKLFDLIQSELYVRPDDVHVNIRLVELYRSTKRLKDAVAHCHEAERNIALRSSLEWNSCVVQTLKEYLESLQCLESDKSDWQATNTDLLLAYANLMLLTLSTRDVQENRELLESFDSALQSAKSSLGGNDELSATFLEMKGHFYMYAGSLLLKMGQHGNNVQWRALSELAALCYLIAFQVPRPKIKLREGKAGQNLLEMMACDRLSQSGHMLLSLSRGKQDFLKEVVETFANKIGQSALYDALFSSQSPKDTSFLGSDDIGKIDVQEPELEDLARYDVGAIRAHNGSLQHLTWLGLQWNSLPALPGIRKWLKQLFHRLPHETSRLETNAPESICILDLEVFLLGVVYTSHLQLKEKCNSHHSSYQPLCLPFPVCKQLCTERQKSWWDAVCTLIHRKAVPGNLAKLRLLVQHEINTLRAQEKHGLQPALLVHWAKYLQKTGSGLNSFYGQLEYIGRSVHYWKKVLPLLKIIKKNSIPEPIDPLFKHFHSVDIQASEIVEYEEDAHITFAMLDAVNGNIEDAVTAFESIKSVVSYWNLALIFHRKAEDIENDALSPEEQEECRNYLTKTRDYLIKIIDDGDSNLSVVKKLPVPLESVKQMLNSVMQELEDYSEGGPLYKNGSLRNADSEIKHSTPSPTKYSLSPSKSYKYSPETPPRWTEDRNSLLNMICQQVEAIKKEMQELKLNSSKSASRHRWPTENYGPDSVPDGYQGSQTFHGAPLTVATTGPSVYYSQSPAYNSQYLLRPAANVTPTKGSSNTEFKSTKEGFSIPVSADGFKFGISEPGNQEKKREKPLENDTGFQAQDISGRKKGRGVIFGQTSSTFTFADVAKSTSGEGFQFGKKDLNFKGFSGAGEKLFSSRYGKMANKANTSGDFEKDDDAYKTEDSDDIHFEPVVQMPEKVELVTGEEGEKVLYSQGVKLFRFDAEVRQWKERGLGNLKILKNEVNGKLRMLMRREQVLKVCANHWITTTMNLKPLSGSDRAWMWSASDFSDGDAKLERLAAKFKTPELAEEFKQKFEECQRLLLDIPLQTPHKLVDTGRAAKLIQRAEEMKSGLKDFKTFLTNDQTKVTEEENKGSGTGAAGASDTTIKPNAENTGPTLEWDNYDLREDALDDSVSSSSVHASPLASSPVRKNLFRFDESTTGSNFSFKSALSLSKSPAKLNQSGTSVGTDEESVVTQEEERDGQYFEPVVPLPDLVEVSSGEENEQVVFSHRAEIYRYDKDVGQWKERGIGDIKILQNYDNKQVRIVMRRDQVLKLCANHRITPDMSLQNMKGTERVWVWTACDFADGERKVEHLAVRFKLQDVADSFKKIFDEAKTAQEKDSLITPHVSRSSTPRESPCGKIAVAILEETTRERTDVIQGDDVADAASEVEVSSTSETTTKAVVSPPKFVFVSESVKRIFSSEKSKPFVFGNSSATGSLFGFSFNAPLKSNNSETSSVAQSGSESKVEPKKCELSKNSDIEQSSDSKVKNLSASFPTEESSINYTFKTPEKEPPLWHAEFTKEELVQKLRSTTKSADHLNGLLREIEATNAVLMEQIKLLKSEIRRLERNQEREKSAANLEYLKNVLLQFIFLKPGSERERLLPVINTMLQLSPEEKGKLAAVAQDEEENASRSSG
# The list shows a part of the results. The list holds hits alone, and they repeat only in part.
# Assays:
# Assay in all cases: PRISMA enrichment of interactor (LFQ) in peptide spot vs all other peptide spots (log2 fold change); higher = stronger / more specific binding of the interactor to the peptide
# PDCD4, Q53EL6 = target: PDCD4, Q53EL6
# Protocol: (§1)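 PRISMA: 15-aa overlapping tiles (offset 8 aa) of 60 microproteins, plus SOS1/GLUT1 control peptides, were spot-synthesized on cellulose membranes in triplicate. Membranes were incubated with benzonase-treated HEK293T lysate, and bound proteins were identified by LC-MS/MS with LFQ. Enrichment is the log2 fold change of each protein in one spot versus all other spots. Only interactors passing the significance cutoff are listed.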
# PKP2, Q99959 = target: PKP2, Q99959
# Protocol: as §1
# POP4, O95707 = target: POP4, O95707
# Protocol: as §1
# PPP1CA, P62136 = target: PPP1CA, P62136
# Protocol: as §1
# PRPF31, Q8WWY3 = target: PRPF31, Q8WWY3
# Protocol: as §1
# PSMB1, P20618 = target: PSMB1, P20618
# Protocol: as §1
# PUM1, Q14671 = target: PUM1, Q14671
# Protocol: as §1
# RAB8A, P61006 = target: RAB8A, P61006
# Protocol: as §1
# RGPD5, Q99666 = target: RGPD5, Q99666
# Protocol: as §1
# RHEB, Q15382 = target: RHEB, Q15382
# Protocol: as §1
# RNF219, Q5W0B1 = target: RNF219, Q5W0B1
# Protocol: as §1
# RNPS1, Q15287 = target: RNPS1, Q15287
# Protocol: as §1
# SETD1A, O15047 = target: SETD1A, O15047
# Protocol: as §1
# SLC39A7, Q92504 = target: SLC39A7, Q92504
# Protocol: as §1
# SNRNP40, Q96DI7 = target: SNRNP40, Q96DI7
# Protocol: as §1
# SPAST, Q9UBP0 = target: SPAST, Q9UBP0
# Protocol: as §1
# SPCS2, Q15005 = target: SPCS2, Q15005
# Protocol: as §1
# SURF6, O75683 = target: SURF6, O75683
# Protocol: as §1
# UPF1, Q92900 = target: UPF1, Q92900
# Protocol: as §1
# UTP20, O75691 = target: UTP20, O75691
# Protocol: as §1
# VMP1, Q96GC9 = target: VMP1, Q96GC9
# Protocol: as §1
# WDR18, Q9BV38 = target: WDR18, Q9BV38
# Protocol: as §1
# ZC3HAV1, Q7Z2W4 = target: ZC3HAV1, Q7Z2W4
# Protocol: as §1
# ABCF1, Q8NE71 = target: ABCF1, Q8NE71
# Protocol: as §1
# C11orf98, E9PRG8 = target: C11orf98, E9PRG8
# Protocol: as §1
# CALD1, Q05682 = target: CALD1, Q05682
# Protocol: as §1
# CCDC59, Q9P031 = target: CCDC59, Q9P031
# Protocol: as §1
# CCDC86, Q9H6F5 = target: CCDC86, Q9H6F5
# Protocol: as §1
# CHMP2B, Q9UQN3 = target: CHMP2B, Q9UQN3
# Protocol: as §1
# DDX6, P26196 = target: DDX6, P26196
# Protocol: as §1
# LETM1, O95202 = target: LETM1, O95202
# Protocol: as §1
# NOL7, Q9UMY1 = target: NOL7, Q9UMY1
# Protocol: as §1
# TFB1M, Q8WVM0 = target: TFB1M, Q8WVM0
# Protocol: as §1
# USP10, Q14694 = target: USP10, Q14694
# Protocol: as §1
# XPOT, O43592 = target: XPOT, O43592
# Protocol: as §1
# ABCF2, Q9UG63 = target: ABCF2, Q9UG63
# Protocol: as §1
# ARHGEF2, Q92974 = target: ARHGEF2, Q92974
# Protocol: as §1
# ARMC6, Q6NXE6 = target: ARMC6, Q6NXE6
# Protocol: as §1
# ATP6V0D1, P61421 = target: ATP6V0D1, P61421
# Protocol: as §1
# BOLA2, Q9H3K6 = target: BOLA2, Q9H3K6
# Protocol: as §1
# BZW2, Q9Y6E2 = target: BZW2, Q9Y6E2
# Protocol: as §1
# CC2D1A, Q6P1N0 = target: CC2D1A, Q6P1N0
# Protocol: as §1
# CTPS1, P17812 = target: CTPS1, P17812
# Protocol: as §1
# DNAJC14, Q6Y2X3 = target: DNAJC14, Q6Y2X3
# Protocol: as §1
# DYNC1H1, Q14204 = target: DYNC1H1, Q14204
# Protocol: as §1
# MRM3, Q9HC36 = target: MRM3, Q9HC36
# Protocol: as §1
# MRPS34, P82930 = target: MRPS34, P82930
# Protocol: as §1
# MSH2, P43246 = target: MSH2, P43246
# Protocol: as §1
# NUSAP1, Q9BXS6 = target: NUSAP1, Q9BXS6
# Protocol: as §1
# PELP1, Q8IZL8 = target: PELP1, Q8IZL8
# Protocol: as §1
# POLR2A, P24928 = target: POLR2A, P24928
# Protocol: as §1
# SART1, O43290 = target: SART1, O43290
# Protocol: as §1
binder,measurement,setting,value
EVLKSKPNSSHWHTG [GAS5],PRISMA enrichment of interactor (log2),"PDCD4, Q53EL6",3.99
same,PRISMA enrichment of interactor (log2),"PKP2, Q99959",6.3
same,PRISMA enrichment of interactor (log2),"POP4, O95707",3.89
same,PRISMA enrichment of interactor (log2),"PPP1CA, P62136",5.48
same,PRISMA enrichment of interactor (log2),"PRPF31, Q8WWY3",4.18
same,PRISMA enrichment of interactor (log2),"PSMB1, P20618",5.84
same,PRISMA enrichment of interactor (log2),"PUM1, Q14671",5.45
same,PRISMA enrichment of interactor (log2),"RAB8A, P61006",8.97
same,PRISMA enrichment of interactor (log2),"RGPD5, Q99666",6.49
same,PRISMA enrichment of interactor (log2),"RHEB, Q15382",4.85
same,PRISMA enrichment of interactor (log2),"RNF219, Q5W0B1",4.8
same,PRISMA enrichment of interactor (log2),"RNPS1, Q15287",5.02
same,PRISMA enrichment of interactor (log2),"SETD1A, O15047",5.79
same,PRISMA enrichment of interactor (log2),"SLC39A7, Q92504",4.98
same,PRISMA enrichment of interactor (log2),"SNRNP40, Q96DI7",8.97
same,PRISMA enrichment of interactor (log2),"SPAST, Q9UBP0",4.69
same,PRISMA enrichment of interactor (log2),"SPCS2, Q15005",4.56
same,PRISMA enrichment of interactor (log2),"SURF6, O75683",4.88
same,PRISMA enrichment of interactor (log2),"UPF1, Q92900",4.9
same,PRISMA enrichment of interactor (log2),"UTP20, O75691",6.66
same,PRISMA enrichment of interactor (log2),"VMP1, Q96GC9",3.82
same,PRISMA enrichment of interactor (log2),"WDR18, Q9BV38",4.81
same,PRISMA enrichment of interactor (log2),"ZC3HAV1, Q7Z2W4",6.39
GVCHSRLKDVFEELL [RP11-140K17.3],PRISMA enrichment of interactor (log2),"ABCF1, Q8NE71",5.73
same,PRISMA enrichment of interactor (log2),"C11orf98, E9PRG8",4.76
same,PRISMA enrichment of interactor (log2),"CALD1, Q05682",9
same,PRISMA enrichment of interactor (log2),"CCDC59, Q9P031",4.69
same,PRISMA enrichment of interactor (log2),"CCDC86, Q9H6F5",5.07
same,PRISMA enrichment of interactor (log2),"CHMP2B, Q9UQN3",6.07
same,PRISMA enrichment of interactor (log2),"DDX6, P26196",5.71
same,PRISMA enrichment of interactor (log2),"LETM1, O95202",4.7
same,PRISMA enrichment of interactor (log2),"NOL7, Q9UMY1",4.25
same,PRISMA enrichment of interactor (log2),"SLC39A7, Q92504",5.45
same,PRISMA enrichment of interactor (log2),"TFB1M, Q8WVM0",5.36
same,PRISMA enrichment of interactor (log2),"USP10, Q14694",6.23
same,PRISMA enrichment of interactor (log2),"XPOT, O43592",6.4
HSVIFPLRKLRLEEG [PDZRN3-AS1],PRISMA enrichment of interactor (log2),"ABCF2, Q9UG63",5.92
same,PRISMA enrichment of interactor (log2),"ARHGEF2, Q92974",4.32
same,PRISMA enrichment of interactor (log2),"ARMC6, Q6NXE6",7.41
same,PRISMA enrichment of interactor (log2),"ATP6V0D1, P61421",5.16
same,PRISMA enrichment of interactor (log2),"BOLA2, Q9H3K6",4.72
same,PRISMA enrichment of interactor (log2),"BZW2, Q9Y6E2",6.07
same,PRISMA enrichment of interactor (log2),"CC2D1A, Q6P1N0",5.93
same,PRISMA enrichment of interactor (log2),"CTPS1, P17812",6.44
same,PRISMA enrichment of interactor (log2),"DNAJC14, Q6Y2X3",4.93
same,PRISMA enrichment of interactor (log2),"DYNC1H1, Q14204",5.46
same,PRISMA enrichment of interactor (log2),"MRM3, Q9HC36",7.37
same,PRISMA enrichment of interactor (log2),"MRPS34, P82930",4.76
same,PRISMA enrichment of interactor (log2),"MSH2, P43246",5.14
same,PRISMA enrichment of interactor (log2),"NUSAP1, Q9BXS6",5.12
same,PRISMA enrichment of interactor (log2),"PELP1, Q8IZL8",5.48
same,PRISMA enrichment of interactor (log2),"POLR2A, P24928",5.21
same,PRISMA enrichment of interactor (log2),"SART1, O43290",5.26

# An excerpt of these results, tab-delimited:
binder	measurement	setting	value
EVLKSKPNSSHWHTG [GAS5]	PRISMA enrichment of interactor (log2)	SETD1A, O15047	5.79
same	PRISMA enrichment of interactor (log2)	SLC39A7, Q92504	4.98
same	PRISMA enrichment of interactor (log2)	SNRNP40, Q96DI7	8.97
